Laboratory results from paper PMC4995489, “Staphylokinase has distinct modes of interaction with antimicrobial peptides, modulating its plasminogen-activation properties” (Scientific Reports, 2016).
Results are given in words; binding and its absence hold for the method and conditions named. Some results given as binding are weak or reduced against the parent protein; the word gives no strength.

B1: Mouse cathelicidin-related antimicrobial peptide (peptide)
peptide: GLLRKGGEKIGEKLKKIGQKIKNFFQKLVPQPEQ
notes: Cathelicidin-related antimicrobial peptide (CRAMP), the C-terminal peptide of the mouse cathelicidin precursor; also called mCRAMP
B2: Tritrp (C-terminally amidated tritrpticin) (peptide)
peptide: VRRFPWWWPFLRR
modifications: C-terminal amide
B3: Bovine lactoferricin (peptide)
peptide: FKCRRWQWRMKKLGAPSITCVRRAF
modifications: disulfide bond between the two Cys residues (Cys3 and Cys20 of the peptide)

Legend:
[1] = target: SakΔN10 (staphylokinase with its first ten residues deleted) (Staphylococcus aureus) (UniProt P68802); experiment: ITC; 200-400 μM peptide titrated into 8 μM Sak or SakΔN10 in the cell; 25 °C; 20 mM HEPES, pH 7.4, no salt; One Set of Sites model; at least two experiments each; both purified
[2] = target: SakΔN10 (staphylokinase with its first ten residues deleted) (Staphylococcus aureus) (UniProt P68802); experiment: NMR titration; 1H,15N HSQC of 15N-labelled Sak or SakΔN10, peptide added in steps of 0.5 molar equivalents; 298 K; 20 mM sodium phosphate, 100 mM NaCl, 1 mM EDTA, pH 6.9; both purified
[3] = target: Staphylokinase (full-length Sak, sakSTAR sequence) (Staphylococcus aureus) (UniProt P68802); experiment: as above

| Binder | binding [1] | binding [2] | binding [3] |
| --- | --- | --- | --- |
| B1 | binds weakly | binds weakly | – |
| B2 | – | binds | binds |
| B3 | – | binds | binds |
